Some results come without the dose or concentration used.

The data set has as its system Pseudomonas putida DOT-T1E. Put plainly: Growth on minimal medium with different carbon sources. The format is cell-based. Conditions: substance as carbon source in liquid M9 minimal medium, exponential growth phase.

Turning to `OCC(O)CO` [Glycerol, glycerol], the Doubling time amounted to 459 min.

`O=C(O)CCC(=O)O` [Succinate, succinate] showed a Doubling time of 125 min.

The record behind these values is US7348421B1, “Methods for production of p-hydroxybenzoate in bacteria” (North Carolina State University, priority 2000, dated 2008).
